From paper PMC10462243
These are yes or no findings as the source states them, for the method shown. Binding seen in cells or lysates may run through a third protein. These calls come from enrichment with a bait or labelling near it, and not all partners need be listed. A no says only that the protein was not detected with the bait. Sequences can lack the tags named with a protein.

The chains behind the UniProt entries cited, without tags or fusion partners.
UniProt Q13619: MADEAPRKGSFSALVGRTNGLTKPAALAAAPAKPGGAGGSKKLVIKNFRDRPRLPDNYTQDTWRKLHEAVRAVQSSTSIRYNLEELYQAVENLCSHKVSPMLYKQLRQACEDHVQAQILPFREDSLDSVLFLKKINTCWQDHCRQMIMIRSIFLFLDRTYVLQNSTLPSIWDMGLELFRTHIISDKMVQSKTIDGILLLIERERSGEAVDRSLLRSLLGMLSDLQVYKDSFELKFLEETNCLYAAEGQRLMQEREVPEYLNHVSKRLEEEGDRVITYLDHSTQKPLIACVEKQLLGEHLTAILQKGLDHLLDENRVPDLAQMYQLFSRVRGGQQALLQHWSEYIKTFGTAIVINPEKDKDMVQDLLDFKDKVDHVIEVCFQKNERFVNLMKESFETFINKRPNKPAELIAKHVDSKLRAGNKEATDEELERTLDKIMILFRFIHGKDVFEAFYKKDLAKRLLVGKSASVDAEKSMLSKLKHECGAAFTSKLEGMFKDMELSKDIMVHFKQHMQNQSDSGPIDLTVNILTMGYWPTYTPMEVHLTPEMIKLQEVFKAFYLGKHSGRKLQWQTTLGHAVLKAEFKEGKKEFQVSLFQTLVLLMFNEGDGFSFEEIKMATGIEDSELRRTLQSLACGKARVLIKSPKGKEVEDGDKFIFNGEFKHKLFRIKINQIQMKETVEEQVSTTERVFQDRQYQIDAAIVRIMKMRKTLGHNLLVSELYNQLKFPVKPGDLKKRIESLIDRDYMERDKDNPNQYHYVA
UniProt Q13620: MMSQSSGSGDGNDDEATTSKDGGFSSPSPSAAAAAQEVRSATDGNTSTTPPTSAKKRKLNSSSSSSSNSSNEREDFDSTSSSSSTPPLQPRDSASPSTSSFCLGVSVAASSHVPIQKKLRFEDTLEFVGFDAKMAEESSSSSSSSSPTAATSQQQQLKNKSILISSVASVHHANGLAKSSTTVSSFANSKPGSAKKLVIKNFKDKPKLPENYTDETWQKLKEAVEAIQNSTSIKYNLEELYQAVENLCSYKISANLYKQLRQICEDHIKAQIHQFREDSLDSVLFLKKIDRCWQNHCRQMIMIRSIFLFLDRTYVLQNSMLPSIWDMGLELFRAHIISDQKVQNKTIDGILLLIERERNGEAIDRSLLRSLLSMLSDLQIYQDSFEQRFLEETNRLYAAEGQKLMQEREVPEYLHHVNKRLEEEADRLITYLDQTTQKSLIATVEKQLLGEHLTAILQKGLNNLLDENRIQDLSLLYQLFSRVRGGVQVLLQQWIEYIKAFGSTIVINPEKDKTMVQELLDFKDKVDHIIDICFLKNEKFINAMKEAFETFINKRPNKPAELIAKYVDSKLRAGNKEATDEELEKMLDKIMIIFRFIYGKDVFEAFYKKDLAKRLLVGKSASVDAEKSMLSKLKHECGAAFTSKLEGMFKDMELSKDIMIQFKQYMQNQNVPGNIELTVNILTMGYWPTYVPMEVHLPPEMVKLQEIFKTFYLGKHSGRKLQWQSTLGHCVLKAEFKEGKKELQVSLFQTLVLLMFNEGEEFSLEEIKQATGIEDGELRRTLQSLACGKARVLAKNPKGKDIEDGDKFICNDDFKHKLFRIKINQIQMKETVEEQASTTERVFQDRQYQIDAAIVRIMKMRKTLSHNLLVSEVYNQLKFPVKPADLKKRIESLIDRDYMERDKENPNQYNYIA
UniProt O94986: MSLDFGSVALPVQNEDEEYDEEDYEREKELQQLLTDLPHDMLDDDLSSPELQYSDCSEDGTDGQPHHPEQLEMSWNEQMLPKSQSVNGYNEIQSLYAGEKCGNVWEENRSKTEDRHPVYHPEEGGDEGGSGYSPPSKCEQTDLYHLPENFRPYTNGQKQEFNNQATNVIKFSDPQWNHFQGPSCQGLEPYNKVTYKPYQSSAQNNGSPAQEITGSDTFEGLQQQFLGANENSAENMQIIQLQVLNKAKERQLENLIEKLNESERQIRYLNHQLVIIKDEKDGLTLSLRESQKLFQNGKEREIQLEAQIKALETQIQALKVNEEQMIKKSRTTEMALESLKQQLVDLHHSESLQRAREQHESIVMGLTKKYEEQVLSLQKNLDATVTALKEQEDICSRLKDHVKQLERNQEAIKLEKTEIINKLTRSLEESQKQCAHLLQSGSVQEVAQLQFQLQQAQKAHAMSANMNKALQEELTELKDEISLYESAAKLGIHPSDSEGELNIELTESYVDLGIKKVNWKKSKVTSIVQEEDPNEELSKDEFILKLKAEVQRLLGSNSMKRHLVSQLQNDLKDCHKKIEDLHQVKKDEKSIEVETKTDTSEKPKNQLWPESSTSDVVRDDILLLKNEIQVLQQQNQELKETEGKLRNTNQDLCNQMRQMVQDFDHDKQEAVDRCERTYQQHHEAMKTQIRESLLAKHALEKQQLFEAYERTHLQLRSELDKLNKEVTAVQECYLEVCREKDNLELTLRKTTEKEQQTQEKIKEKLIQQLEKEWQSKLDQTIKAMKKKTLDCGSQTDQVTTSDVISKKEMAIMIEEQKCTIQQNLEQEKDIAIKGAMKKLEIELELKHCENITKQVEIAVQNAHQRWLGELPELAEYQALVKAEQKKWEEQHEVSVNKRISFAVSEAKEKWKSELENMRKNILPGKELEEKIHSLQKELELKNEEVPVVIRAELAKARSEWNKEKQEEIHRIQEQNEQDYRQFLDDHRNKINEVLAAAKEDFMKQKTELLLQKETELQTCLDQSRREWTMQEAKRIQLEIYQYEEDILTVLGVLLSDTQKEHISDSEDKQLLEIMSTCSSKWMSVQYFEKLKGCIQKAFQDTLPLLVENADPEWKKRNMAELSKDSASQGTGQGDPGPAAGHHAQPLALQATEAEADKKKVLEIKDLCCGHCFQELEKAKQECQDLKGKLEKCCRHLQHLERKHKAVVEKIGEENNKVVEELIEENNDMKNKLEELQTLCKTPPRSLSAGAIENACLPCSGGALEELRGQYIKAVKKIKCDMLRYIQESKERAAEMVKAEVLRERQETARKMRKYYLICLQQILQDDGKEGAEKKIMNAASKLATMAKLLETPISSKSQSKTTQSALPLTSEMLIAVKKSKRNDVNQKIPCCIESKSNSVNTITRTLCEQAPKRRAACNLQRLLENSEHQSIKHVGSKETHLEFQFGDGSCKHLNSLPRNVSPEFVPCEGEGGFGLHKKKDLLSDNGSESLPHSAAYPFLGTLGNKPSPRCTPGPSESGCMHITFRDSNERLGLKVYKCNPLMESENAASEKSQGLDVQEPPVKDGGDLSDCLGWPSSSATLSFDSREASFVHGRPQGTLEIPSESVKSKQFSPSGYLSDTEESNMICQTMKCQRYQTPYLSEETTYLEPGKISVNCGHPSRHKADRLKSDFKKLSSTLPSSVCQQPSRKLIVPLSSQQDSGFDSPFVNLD
UniProt Q16531: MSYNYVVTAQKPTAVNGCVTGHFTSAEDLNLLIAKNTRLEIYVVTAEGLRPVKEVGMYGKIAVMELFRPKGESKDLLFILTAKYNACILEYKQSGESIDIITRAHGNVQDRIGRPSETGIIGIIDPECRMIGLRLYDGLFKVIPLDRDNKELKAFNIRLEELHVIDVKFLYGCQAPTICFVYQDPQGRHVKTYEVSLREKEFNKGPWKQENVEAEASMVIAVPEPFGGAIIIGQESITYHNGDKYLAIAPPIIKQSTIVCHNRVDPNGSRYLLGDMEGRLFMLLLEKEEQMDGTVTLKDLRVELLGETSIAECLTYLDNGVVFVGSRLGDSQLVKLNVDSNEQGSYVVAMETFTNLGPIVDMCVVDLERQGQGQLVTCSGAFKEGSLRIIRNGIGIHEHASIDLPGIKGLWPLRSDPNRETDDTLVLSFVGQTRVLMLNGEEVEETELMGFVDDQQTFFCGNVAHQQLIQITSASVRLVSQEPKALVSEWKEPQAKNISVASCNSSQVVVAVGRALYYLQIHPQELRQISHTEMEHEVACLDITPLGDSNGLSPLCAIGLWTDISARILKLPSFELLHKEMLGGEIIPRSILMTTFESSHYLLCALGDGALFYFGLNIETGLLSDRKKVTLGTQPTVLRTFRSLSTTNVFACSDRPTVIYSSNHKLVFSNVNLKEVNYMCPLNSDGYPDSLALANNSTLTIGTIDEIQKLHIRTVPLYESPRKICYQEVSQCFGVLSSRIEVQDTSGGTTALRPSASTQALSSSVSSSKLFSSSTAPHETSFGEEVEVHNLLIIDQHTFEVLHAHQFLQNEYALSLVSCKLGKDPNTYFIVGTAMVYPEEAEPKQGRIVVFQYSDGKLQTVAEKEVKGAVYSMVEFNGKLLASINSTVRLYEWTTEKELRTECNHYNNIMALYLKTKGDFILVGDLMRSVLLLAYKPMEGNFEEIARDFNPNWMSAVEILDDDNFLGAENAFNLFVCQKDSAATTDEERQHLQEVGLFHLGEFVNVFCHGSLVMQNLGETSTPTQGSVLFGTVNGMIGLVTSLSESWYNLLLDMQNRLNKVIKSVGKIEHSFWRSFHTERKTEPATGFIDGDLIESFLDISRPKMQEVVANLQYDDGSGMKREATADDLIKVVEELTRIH
UniProt Q9Y4B6: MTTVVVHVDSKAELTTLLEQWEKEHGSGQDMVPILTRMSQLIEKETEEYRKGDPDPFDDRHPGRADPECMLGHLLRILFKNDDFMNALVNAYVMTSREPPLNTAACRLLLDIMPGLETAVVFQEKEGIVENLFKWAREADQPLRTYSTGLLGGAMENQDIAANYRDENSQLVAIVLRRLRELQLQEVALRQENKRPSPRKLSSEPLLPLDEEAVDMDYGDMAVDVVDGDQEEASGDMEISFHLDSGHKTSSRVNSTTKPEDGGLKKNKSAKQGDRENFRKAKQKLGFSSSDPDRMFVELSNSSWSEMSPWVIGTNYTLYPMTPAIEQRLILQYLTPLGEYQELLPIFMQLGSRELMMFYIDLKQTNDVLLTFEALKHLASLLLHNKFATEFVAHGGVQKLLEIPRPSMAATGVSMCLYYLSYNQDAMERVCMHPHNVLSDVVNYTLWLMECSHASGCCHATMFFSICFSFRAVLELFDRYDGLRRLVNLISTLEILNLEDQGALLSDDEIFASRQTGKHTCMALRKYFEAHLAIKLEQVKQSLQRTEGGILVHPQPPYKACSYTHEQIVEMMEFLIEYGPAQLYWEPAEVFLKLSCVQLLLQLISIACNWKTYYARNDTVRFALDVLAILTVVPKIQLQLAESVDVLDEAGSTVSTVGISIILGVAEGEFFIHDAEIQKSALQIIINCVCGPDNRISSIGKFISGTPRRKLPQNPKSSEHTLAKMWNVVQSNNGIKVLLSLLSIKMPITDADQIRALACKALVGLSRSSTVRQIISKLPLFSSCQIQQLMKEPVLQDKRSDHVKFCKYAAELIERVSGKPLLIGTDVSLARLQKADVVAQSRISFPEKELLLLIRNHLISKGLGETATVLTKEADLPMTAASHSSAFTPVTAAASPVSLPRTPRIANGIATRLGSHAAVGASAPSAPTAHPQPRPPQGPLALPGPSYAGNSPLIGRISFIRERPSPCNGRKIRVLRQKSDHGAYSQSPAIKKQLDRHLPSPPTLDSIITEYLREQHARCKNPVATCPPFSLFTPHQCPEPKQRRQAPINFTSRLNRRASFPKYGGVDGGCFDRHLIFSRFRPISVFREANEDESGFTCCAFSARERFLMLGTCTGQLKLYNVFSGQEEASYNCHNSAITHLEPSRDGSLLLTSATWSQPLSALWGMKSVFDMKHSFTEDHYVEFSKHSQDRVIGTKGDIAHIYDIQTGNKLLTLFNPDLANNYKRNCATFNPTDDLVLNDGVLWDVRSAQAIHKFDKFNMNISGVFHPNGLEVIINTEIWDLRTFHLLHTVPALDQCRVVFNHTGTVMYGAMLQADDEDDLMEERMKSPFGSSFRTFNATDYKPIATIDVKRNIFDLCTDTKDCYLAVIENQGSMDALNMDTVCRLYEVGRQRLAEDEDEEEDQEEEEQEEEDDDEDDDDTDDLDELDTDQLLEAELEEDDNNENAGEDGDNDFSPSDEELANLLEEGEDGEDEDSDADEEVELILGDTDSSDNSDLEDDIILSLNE

What was measured:
[1] = biological target: T1, FLAG-tagged Plk4 CTD (581–970) (UniProt O00444); test: affinity purification with mass spectrometry
T1 sequence: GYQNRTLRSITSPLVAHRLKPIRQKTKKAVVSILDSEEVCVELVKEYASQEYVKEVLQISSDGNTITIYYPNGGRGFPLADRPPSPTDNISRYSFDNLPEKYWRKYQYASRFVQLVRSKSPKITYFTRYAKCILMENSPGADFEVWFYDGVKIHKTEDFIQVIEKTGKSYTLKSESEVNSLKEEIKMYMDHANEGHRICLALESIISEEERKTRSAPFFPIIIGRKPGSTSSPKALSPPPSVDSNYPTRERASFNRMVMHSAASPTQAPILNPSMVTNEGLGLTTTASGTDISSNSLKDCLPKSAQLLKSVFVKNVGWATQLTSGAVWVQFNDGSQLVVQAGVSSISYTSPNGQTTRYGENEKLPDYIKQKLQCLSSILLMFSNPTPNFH

[2] = biological target: T2, ZZ-tagged Plk4 CPB (581–884) (UniProt O00444); test: affinity purification with mass spectrometry; Expt. 1: lysates of HEK293T cells transfected with ZZ-TEV-Plk4 CPB(581–884) on a human IgG column, eluted after AcTEV digestion with TBSN buffer; SDS-PAGE bands, trypsin, nanoLC-tandem MS
T2 sequence: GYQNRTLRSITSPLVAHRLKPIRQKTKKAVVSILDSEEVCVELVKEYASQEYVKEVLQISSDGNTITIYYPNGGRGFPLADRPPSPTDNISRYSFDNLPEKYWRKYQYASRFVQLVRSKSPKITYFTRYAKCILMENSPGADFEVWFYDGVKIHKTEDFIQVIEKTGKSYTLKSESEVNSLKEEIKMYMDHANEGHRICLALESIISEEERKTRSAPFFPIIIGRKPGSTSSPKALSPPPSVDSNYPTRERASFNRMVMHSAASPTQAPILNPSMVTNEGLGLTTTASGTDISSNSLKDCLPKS

Row | Substance | binding [1] | binding [2]
1 | CUL4A (endogenous, HEK293T) (from UniProt Q13619 1-759) | no binding | no binding
2 | CUL4B (endogenous, HEK293T) (from UniProt Q13620 1-913) | no binding | no binding
3 | Cep152 (endogenous, HEK293T) (from UniProt O94986 1-1710) | binds | binds
4 | DDB1 (endogenous, HEK293T) (from UniProt Q16531 1-1140) | binds | binds
5 | VprBP (endogenous, HEK293T) (from UniProt Q9Y4B6 1-1507) | binds | binds
